System: UC-MSCs
Experiment: Measurement of intracellular retention time of each ER-FT derivative compound (Operetta imaging)
Type: cell-based
Settings: for fluorescence intensity as a function of retention time: 510 nm and 580 nm, 10, 15 and 20 μM staining for 1 hour
Method: (1) UC-MSCs were seeded into 96-well plates at a density of 4,000 cells/well and then cultured 24 hours. (2) Cell media containing each of ER-FTs (Formulas IV to VI) at concentrations of 10, 15 and 20 μM were prepared. (3) After medium suction, ER-FT staining was performed, followed by incubation in an incubator at 37° C. for 1 hour. (4) After medium suction, 100 μl of HBSS was added to each well.

## Cc1ccc(S(=O)(=O)NCCNC(=O)C2CCN(C(=O)C(C#N)=Cc3cc4cc5c6c(c4oc3=O)CCCN6CCC5)CC2)cc1 [Formula IV]
  fluorescence intensity as a function of retention time: constant fluorescence intensity

## N#CC(=Cc1cc2cc3c4c(c2oc1=O)CCCN4CCC3)C(=O)N1CCC(C(=O)NCCCOCCOCCOCCCNC(=O)c2c(F)c(F)c(F)c(F)c2F)CC1 [Formula VII]
  retention in the cells: remained in the cells for a long time
  fluorescence intensity as a function of retention time: high at the initial stage, but decreased gradually during the initial 20 minutes

## N#CC(=Cc1cc2cc3c4c(c2oc1=O)CCCN4CCC3)C(=O)N1CCC(C(=O)NCCNC(=O)c2c(F)c(F)c(F)c(F)c2F)CC1 [Formula VI]
  retention in the cells: remained in the cells for a long time
  fluorescence intensity as a function of retention time: high at the initial stage, but decreased gradually during the initial 20 minutes

## Cc1ccc(S(=O)(=O)NCCCOCCOCCOCCCNC(=O)C2CCN(C(=O)C(C#N)=Cc3cc4cc5c6c(c4oc3=O)CCCN6CCC5)CC2)cc1 [Formula V]
  fluorescence intensity as a function of retention time: constant fluorescence intensity

Source: patent publication US20230080144A1, “REAL-TIME FLUORESCENCE IMAGING SENSOR FOR MEASURING GLUTATHIONE IN ENDOPLASMIC RETICULUM AND METHOD USING SAME” (CELL2IN, INC., priority 2019, published 2023)
